According to PubChem BioAssay AID2685 (National Center for Advancing Translational Sciences (NCATS), 2010):
Some of the results follow. Further columns of the screen follow, without active or inactive calls. Most of these compounds were active or inconclusive in the main read-out, so they are no random draw. Potencies come from curve fits of mixed quality, noted in brackets.

Test: qHTS Assay for Lipid Storage Modulators in Drosophila S3 Cells;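 for cell number change: cells counted by Cell Tracker Red CMTPX staining in the red channel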
Conditions: BODIPY lipid droplet fluorescence, 18-24 h; for cell number change: measured here: cell count max response, cells fed with added oleic acid
Outline: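 Drosophila S3 cells loaded with oleic acid (400 uM, as added) and compounds at several concentrations; lipid droplets imaged by 488-nm laser-scanning cytometry, 500–530 nm intensity and object ratio to cell channel. Percent activity normalized to 20 uM Triacsin C.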

[1] = measured here: lipid fluorescence (Fed channel) AC50, cells fed with added oleic acid
[2] = measured here: cell number channel AC50, cells fed with added oleic acid

SMILES | cell number change | AC50 [1] | AC50 [2]
O=C(N/N=C1/CCS(=O)(=O)c2ccc(F)cc21)c1cccnc1 | 19.4% | 5.8 µM [rising, full curve, poor fit] | 
COC(=O)c1ccc(-c2ccco2)n1Cc1ccccc1Cl | -23.2% |  | 
CC(C)CC(NC(N)=O)C(=O)OCC(=O)Nc1ccc(SC(F)F)cc1 (stereo not drawn) | 13.3% | 2.59 µM [rising, single point] | 6.51 µM [rising, single point]
O/N=C1\CC(O)Cc2nonc21 (stereo not drawn) | 3.63% | 20.6 µM [rising, single point] | 
O=c1ccn(Cc2ccccc2)cc1 | -20.3% | 29.1 µM [falling, single point] | 
CCC(C)NC(=O)C1c2ccccc2C(=O)N(c2ccc(OC)cc2)C1c1ccc(OC)cc1 (stereo not drawn) | -16% |  | 
COc1ccc(S(=O)(=O)Nc2ccccc2C(N)=O)cc1OC | -4.44% | 6.51 µM [falling, single point] | 
C=CCOc1ccc(/C=C/C(=O)OCC(=O)NCc2cccs2)cc1 |  | 1.3 µM [falling, full curve] | 0.517 µM [falling, full curve, poor fit]
CC(=O)Oc1c(Cl)c(N2CCOCC2)c(OC(C)=O)c2ccccc12 | -14.9% | 6.51 µM [falling, full curve, poor fit] | 
N#CC(C(=O)NC1CC1)c1nc2ccccc2nc1N1CCN(C/C=C/c2ccccc2)CC1 (stereo not drawn) | 38.7% | 9.2 µM [rising, partial curve] | 4.61 µM [rising, full curve]
Cc1cccn2c(=O)c(/C=C(\C#N)S(=O)(=O)c3ccccc3)c(N3CCN(c4ccccc4)CC3)nc12 | 52.1% | 0.651 µM [falling, partial curve, poor fit] | 6.51 µM [falling, single point]
CCc1ccc(OCCNC(=O)c2cccs2)cc1 | -50.9% |  | 29.1 µM [falling, single point]
COCCN(C)Cc1nc(C(c2ccccc2)c2ccccc2)no1 | -10.8% | 2.91 µM [rising, partial curve] | 
CC(C)n1c(SCC(=O)N2CCN(C(=O)c3ccco3)CC2)nc2c1c(=O)n(C)c(=O)n2C |  | 4.61 µM [rising, partial curve, poor fit] | 
CCOC(=O)c1ccccc1C(=O)N1CCOCCOCCOCC1 | -24.7% |  | 
COc1ccc(S(=O)(=O)N2CCN(CC(=O)Nc3ccc(F)c(F)c3)CC2)cc1 |  |  | 4.61 µM [rising, single point]
Cc1ccc(C)c2c3c([nH]c12)-c1nonc1CC3 | -34.9% | 20.6 µM [falling, single point] | 29.1 µM [falling, single point]

Looked up one by one from above:
SMILES | cell number change | AC50 [1] | AC50 [2]
COC(=O)c1ccc(-c2ccco2)n1Cc1ccccc1Cl | -23.2% |  | 
COCCN(C)Cc1nc(C(c2ccccc2)c2ccccc2)no1 | -10.8% | 2.91 µM [rising, partial curve] | 
